Assay results reported in publication PMC5327418.
No constants are given. Whether binding was seen depends on the method and setting. In cells and extracts the contact can be indirect. A yes stands for co-enrichment or nearness to the bait. Other partners may have been found.

Protein sequences, listed by entry. Tags and fused reporters are not part of them.
UniProt P32569: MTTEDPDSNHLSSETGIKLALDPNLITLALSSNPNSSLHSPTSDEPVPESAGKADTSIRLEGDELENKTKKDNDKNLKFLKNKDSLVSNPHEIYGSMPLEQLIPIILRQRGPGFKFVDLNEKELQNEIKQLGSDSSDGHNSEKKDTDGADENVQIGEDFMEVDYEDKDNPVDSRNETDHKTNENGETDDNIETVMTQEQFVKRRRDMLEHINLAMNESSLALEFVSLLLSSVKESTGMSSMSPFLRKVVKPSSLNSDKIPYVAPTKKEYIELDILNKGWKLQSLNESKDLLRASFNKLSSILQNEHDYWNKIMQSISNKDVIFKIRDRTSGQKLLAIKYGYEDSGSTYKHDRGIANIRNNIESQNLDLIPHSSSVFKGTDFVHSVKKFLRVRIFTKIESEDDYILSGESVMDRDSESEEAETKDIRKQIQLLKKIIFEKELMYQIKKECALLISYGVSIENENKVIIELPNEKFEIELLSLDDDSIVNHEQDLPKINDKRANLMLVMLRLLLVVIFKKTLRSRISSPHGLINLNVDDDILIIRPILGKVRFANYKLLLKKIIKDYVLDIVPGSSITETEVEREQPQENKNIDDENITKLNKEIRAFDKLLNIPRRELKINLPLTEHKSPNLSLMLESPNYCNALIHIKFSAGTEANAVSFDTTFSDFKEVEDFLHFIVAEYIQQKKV

Molecular target: Med17-HA (S. cerevisiae (endogenous in S288c)) (UniProt P32569)
Assay: affinity purification with mass spectrometry; CoIP of Med17-HA on anti-HA magnetic beads from cryoground yeast lysate, 2 h at 4 °C; 20 mM HEPES pH 7.5, 300 mM KOAc, 10% glycerol, 0.01% NP-40, 6 mM MnSO4, 1 mM DTT, Cyanase nuclease; parallel control CoIP from 15N-labelled wild type cells, mixing after purification (MAP); GeLC-MS/MS, three biological replicates

Row | binding | Binder
1 | binds | Sxm1 (protein, UniProt Q04175 1-944) MVQEQAILSCIEQTMVADAKIIKEAEQQLFEFQKQPGFTSFLLNIVSDDNFALNVRLSSAIYLKNKIHRSWDTKREDGIKADEKLSIKERLIETLVKNCENNHIRPILTETINGILVGQEDWDLAPIIKNLLSSGDASYIYPGLLLLFQLCKAHRWDMVGSRDYIDSVIEELFPIVEGIASNIGSQTDYRSNEILYLILKSFKYACLNNLPQYFSQPERIMSWVQLHLYLCSKPLPVEVMELDPADRSLDKRVKVNKWGFGNLNRFLQRYNKITKAITKEFIDYIFNTIVPIILREFFKDIEAWGNNSLWLSDSSLYFLISFLEKCVTIDQLYPLIEPHLQIIFENVIFPCLCANEQSIELLEDDQEEYTRRYFDINREGSTPDAASADFIFLIGSKRPEKLNNILPFINDIFTRFDANSSDINMAFKEEGALRTLSNLFSFIDEPSVLENIFGHFIVPLLSQDKYMFLVARSLETIALYSEEFKDMNILSQLFELTYTNFLNSNVLPVQIEAADAIKCLIVSNPQIHPAVSAHVPGMMEKLLKLSKIFEIDILSEVMEALVERFSDELSPFAKDLASNLVEQFLRIAQALVENPSETYSASDQEQEIQASGLLQTMTTMVMSMNKVPLIESLAPVVKFVVLHAQISFITEAVDLLDALTISSHLLYNQIAPPIWELLHDILDSFQTYAMDYFEAYSIFFETIVMTGFPQDQTYVQPLLEILSAKLESEVDYDIEHVMQILMYFALSMRDIPLFSKAIKVSTNDELGLDSKCIVKLGLANLFAKPIETLQIMENEGFTINFFTNWFNEKFYSVFAIKLQVLVILTLLKMPEVPNSVSPLLNNLTNKLVELTLSLPKAIRNRDAVTEGKSLEGDLTPEEEEEYFIECDDDMKETVLDQINVFQEVHTFFKNLQNEDAGKYEKIINYLDESKRDSLQVILEFVSQH
2 | binds | Pex19 (protein, UniProt Q07418 1-342) MNENEYDNFDDLDDLLDEDPTKLDEAEPDDVQAKGSVYNDSENKEKNAESKDSDGVQVANESEEDPELKEMMVDLQNEFANLMKNNGNENNVKTEDFNKLISALEEAAKVPHQQMEQGCSSLKSNSTDKGTVNGSNPGFKNIVSNTLDRLKENGNKVDTSLAEETKESQRSGQNNNIDDILSQLLDQMVASGGKESAENQFDLKDGEMDDAITKILDQMTSKEVLYEPMKEMRSEFGVWFQENGENEEHKEKIGTYKRQFNIVDEIVNIYELKDYDELKHKDRVTELLDELEQLGDSPIRSANSPLKHGNEEEELMKMLEIDGNDPNLGNLDKELTDGCKQQ
3 | binds | Pdr1 (protein, UniProt P12383 1-1068) MRGLTPKNGVHIETGPDTESSADSSNFSTGFSGKIRKPRSKVSKACDNCRKRKIKCNGKFPCASCEIYSCECTFSTRQGGARIKNLHKTSLEGTTVQVKEETDSSSTSFSNPQRCTDGPCAVEQPTKFFENFKLGGRSSGDNSGSDGKNDDDVNRNGFYEDDSESQATLTSLQTTLKNLKEMAHLGTHVTSAIESIELQISDLLKRWEPKVRTKELATTKFYPNKSIETQLMKNKYCDVVHLTRYAAWSNNKKDQDTSSQPLIDEIFGLYSPFQFLSLQGIGKCFQNYRSKSKCEIFPRTAKETIYIMLRFFDVCFHHINQGCVSIANPLENYLQKMNLLPSTPSSISSAGSPNTAHTKSHVALVINHLPQPFVRNITGISNSELLSEMNNDISMFGILLKMLDMHKNSYQNFLMEITSNPSVAKNTQSIDVLQEFIHYCQAGEALIALCYSYYNSTLYNYVDFTCDITHLEQLLYFLDLLFWLSEIYGFEKVLNVAVHFVSRVGLSRWEFYVGLDENFAERRRNLWWKAFYFEKTLASKLGYPSNIDDSKINCLLPKNFRDVGFLDNRDFIENVHLVRRSEAFDNMCISDLKYYGELAVLQIVSHFSSSVLFNEKFTSIRNTSKPSVVREKLLFEVLEIFNETEMKYDAIKEQTGKLFDIAFSKDSTELKVSREDKIMASKFVLFYEHHFCRMVNESDNIVARLCVHRRPSILIENLKIYLHKIYKSWTDMNKILLDFDNDYSVYRSFAHYSISCIILVSQAFSVAEFIKVNDVVNMIRVFKRFLDIKIFSENETNEHVFNSQSFKDYTRAFSFLTIVTRIMLLAYGESSSTNLDVISKYIDENAPDLKGIIELVLDTNSCAYRFLLEPVQKSGFHLTVSQMLKNRKFQEPLMSNEDNKQMKHNSGKNLNPDLPSLKTGTSCLLNGIESPQLPFNGRSAPSPVRNNSLPEFAQLPSFRSLSVSDMINPDYAQPTNGQNNTQVQSNKPINAQQQIPTSVQVPFMNTNEINNNNNNNNNNKNNINNINNNNSNNFSATSFNLGTLDEFVNNGDLEDLYSILWSDVYPDS
4 | binds | Imb4 (protein, UniProt P40069 1-1113) MDQQFLSQLEQTLHAITSGVGLKEATKTLQTQFYTQPTTLPALIHILQNGSDDSLKQLAGVEARKLVSKHWNAIDESTRASIKTSLLQTAFSEPKENVRHSNARVIASIGTEELDGNKWPDLVPNLIQTASGEDVQTRQTAIFILFSLLEDFTSSLSGHIDDFLALFSQTINDPSSLEIRSLSAQALNHVSALIEEQETINPVQAQKFAASIPSVVNVLDAVIKADDTMNAKLIFNCLNDFLLLDSQLTGNFIVDLIKLSLQIAVNSEIDEDVRVFALQFIISSLSYRKSKVSQSKLGPEITVAALKVACEEIDVDDELNNEDETGENEENTPSSSAIRLLAFASSELPPSQVASVIVEHIPAMLQSANVFERRAILLAISVAVTGSPDYILSQFDKIIPATINGLKDTEPIVKLAALKCIHQLTTDLQDEVAKFHEEYLPLIIDIIDSAKNIVIYNYATVALDGLLEFIAYDAIAKYLDPLMNKLFYMLESNESSKLRCAVVSAIGSAAFAAGSAFIPYFKTSVHYLEKFIQNCSQIEGMSEDDIELRANTFENISTMARAVRSDAFAEFAEPLVNSAYEAIKTDSARLRESGYAFIANLAKVYGENFAPFLKTILPEIFKTLELDEYQFNFDGDAEDLAAFADSANEEELQNKFTVNTGISYEKEVASAALSELALGTKEHFLPYVEQSLKVLNEQVDESYGLRETALNTIWNVVKSVLLASKVEPESYPKGIPASSYVNADVLAVIQAARETSMGNLSDEFETSMVITVMEDFANMIKQFGAIIIMDNGDSSMLEALCMQVLSVLKGTHTCQTIDIEEDVPRDEELDASETEATLQDVALEVLVSLSQALAGDFAKVFDNFRPVVFGLFQSKSKNKRSSAVGAASELALGMKEQNPFVHEMLEALVIRLTSDKSLEVRGNAAYGVGLLCEYASMDISAVYEPVLKALYELLSAADQKALAAEDDEATREIIDRAYANASGCVARMALKNSALVPLEQTVPALLAHLPLNTGFEEYNPIFELIMKLYQENSPVITNETPRIIEIFSAVFTKENDRIKLEKESTLGREENMERLKQFQTEEMKHKVIELLKYLNTTYNGIVAQNPVLAAVIA
5 | binds | DNA topoisomerase 2 (protein, UniProt P06786 1-1428) MSTEPVSASDKYQKISQLEHILKRPDTYIGSVETQEQLQWIYDEETDCMIEKNVTIVPGLFKIFDEILVNAADNKVRDPSMKRIDVNIHAEEHTIEVKNDGKGIPIEIHNKENIYIPEMIFGHLLTSSNYDDDEKKVTGGRNGYGAKLCNIFSTEFILETADLNVGQKYVQKWENNMSICHPPKITSYKKGPSYTKVTFKPDLTRFGMKELDNDILGVMRRRVYDINGSVRDINVYLNGKSLKIRNFKNYVELYLKSLEKKRQLDNGEDGAAKSDIPTILYERINNRWEVAFAVSDISFQQISFVNSIATTMGGTHVNYITDQIVKKISEILKKKKKKSVKSFQIKNNMFIFINCLIENPAFTSQTKEQLTTRVKDFGSRCEIPLEYINKIMKTDLATRMFEIADANEENALKKSDGTRKSRITNYPKLEDANKAGTKEGYKCTLVLTEGDSALSLAVAGLAVVGRDYYGCYPLRGKMLNVREASADQILKNAEIQAIKKIMGLQHRKKYEDTKSLRYGHLMIMTDQDHDGSHIKGLIINFLESSFPGLLDIQGFLLEFITPIIKVSITKPTKNTIAFYNMPDYEKWREEESHKFTWKQKYYKGLGTSLAQEVREYFSNLDRHLKIFHSLQGNDKDYIDLAFSKKKADDRKEWLRQYEPGTVLDPTLKEIPISDFINKELILFSLADNIRSIPNVLDGFKPGQRKVLYGCFKKNLKSELKVAQLAPYVSECTAYHHGEQSLAQTIIGLAQNFVGSNNIYLLLPNGAFGTRATGGKDAAAARYIYTELNKLTRKIFHPADDPLYKYIQEDEKTVEPEWYLPILPMILVNGAEGIGTGWSTYIPPFNPLEIIKNIRHLMNDEELEQMHPWFRGWTGTIEEIEPLRYRMYGRIEQIGDNVLEITELPARTWTSTIKEYLLLGLSGNDKIKPWIKDMEEQHDDNIKFIITLSPEEMAKTRKIGFYERFKLISPISLMNMVAFDPHGKIKKYNSVNEILSEFYYVRLEYYQKRKDHMSERLQWEVEKYSFQVKFIKMIIEKELTVTNKPRNAIIQELENLGFPRFNKEGKPYYGSPNDEIAEQINDVKGATSDEEDEESSHEDTENVINGPEELYGTYEYLLGMRIWSLTKERYQKLLKQKQEKETELENLLKLSAKDIWNTDLKAFEVGYQEFLQRDAEARGGNVPNKGSKTKGKGKRKLVDDEDYDPSKKNKKSTARKGKKIKLEDKNFERILLEQKLVTKSKAPTKIKKEKTPSVSETKTEEEENAPSSTSSSSIFDIKKEDKDEGELSKISNKFKKISTIFDKMGSTSATSKENTPEQDDVATKKNQTTAKKTAVKPKLAKKPVRKQQKVVELSGESDLEILDSYTDREDSNKDEDDAIPQRSRRQRSSRAASVPKKSYVETLELSDDSFIEDDEEENQGSDVSFNEED
6 | binds | Ksp1 (protein, UniProt P38691 1-1029) MTLDYEIYKEGGILNNRYQKIEDISEGSYGYVSLAKDVREKRLVAVKYIFKLEDDGQYDGPQDDENDCDSSDCDDDEDTKVDTDRHENENGNASSNNGSSREKKHNLYKHKKSLISSKVKSRLSNNICLEAMYEVDIQTKIGRHQNIAALLDFFDSYIIMEYCSGGDLYEAIKADAVPKKTKSITHIITQIMDAIEYVHNKGIYHRDIKPENILISGIDWTIKLTDWGLATTDKTSMDRNVGSERYMSPELFDSNLDIKERKEPYDCAKVDLWAMGIVFLNIVFHKNPFSIANQSDKSFCYFAANREALFDVFSTMAYDFFQVLRYSLTIDPANRDLKMMRTELQNLSEYTLDDEYYNNLDEGYEETMIDGLPPQPVPPSSAPVSLPTPISSSNKQHMPEFKKDFNFNNVNERKRSDVSQNQNVASGFFKKPSTQQQKFFNQGYNTTLSTHERAKSAPKFKFKKRNKYGRTDNQFSKPVNIEDRKKSKILKKSRKPLGIPTPNTHMNNFFHDYKARDEFNTRDFFTPPSVQHRYMEGFSNNNNKQYRQNRNYNNNNNNSNNNHGSNYNNFNNGNSYIKGWNKNFNKYRRPSSSSYTGKSPLSRYNMSYNHNNNSSINGYARRGSTTTVQHSPGAYIPPNARNHHVSPTNQFLRVPQSTAPDISTVLGGKPSYQEHYTQDSMDSEGDHDSDDVLFTLEEGDHDFVNGMDNLSINDHLPHTTVGSHNEVFVHASTNHNNNGNNNHIDTNSTTNQYHRQYIPPPLTTSLHINNNNNESNELPDLLKSPASSEAHLNLSSGPIDPILTGNIGNRYSHSSDSKELEQERRLSMEQKFKNGVYVPPHHRKSFNLGTQVPPMNMKTSNEATLSVSHNSVNFGGSYNSRRSSANESNPLHMNKALEKLSSSPGAKSSFVGFPKPLLPRNHSSTTIALQNEDVFADSNNDAIIFEDEEYEGESDKMAHGKMEGGDNESSSTSPDERQIFGPYEIYAQTFAGSTHDKKLGAGRKTSIQDEMVGSLEQYKNNWLILQQQD
